# According to the supplement of paper PMC10077471:
# Over roughly 1,900 compounds, “excess over highest single agent (ExcessHSA) synergy score, 6x6 matrix” has its median near -83; the lowest 2% begin near -370. This is one part of the list.
# System: NCI-H446
# Assay: excess over highest single agent (ExcessHSA) synergy score, 6x6 matrix; higher = less synergy (more negative = stronger synergy)
# Details: 72 h; CellTiter-Glo viability
row,Compound,excess over highest single agent
1,O=C(O)CCn1c2c(c3ccccc31)C[C@H](NS(=O)(=O)c1ccc(F)cc1)CC2 + Cc1sc2c(c1C)C(c1ccc(Cl)cc1)=N[C@@H](CC(=O)OC(C)(C)C)c1nnc(C)n1-2 [NCGC00250412-19],-70.7
2,O=NN(CCCl)C(=O)NC1CCCCC1 + Cc1sc2c(c1C)C(c1ccc(Cl)cc1)=N[C@@H](CC(=O)OC(C)(C)C)c1nnc(C)n1-2 [NCGC00250412-19],147
3,Nc1nc(F)nc2c1ncn2[C@@H]1O[C@H](CO)[C@@H](O)[C@H]1O + Cc1sc2c(c1C)C(c1ccc(Cl)cc1)=N[C@@H](CC(=O)OC(C)(C)C)c1nnc(C)n1-2 [NCGC00250412-19],-191
4,CCOC(=O)C1=C[C@]2(CC)CCCN3CCc4c(n1c1ccccc41)[C@@H]32 + Cc1sc2c(c1C)C(c1ccc(Cl)cc1)=N[C@@H](CC(=O)OC(C)(C)C)c1nnc(C)n1-2 [NCGC00250412-19],-195
5,COC[C@@H](NC(C)=O)C(=O)NCc1ccccc1 + Cc1sc2c(c1C)C(c1ccc(Cl)cc1)=N[C@@H](CC(=O)OC(C)(C)C)c1nnc(C)n1-2 [NCGC00250412-19],-71.4
6,CN1CCC(COc2cnc(-c3cccc(Cn4nc(-c5cccc(C#N)c5)ccc4=O)c3)nc2)CC1 + Cc1sc2c(c1C)C(c1ccc(Cl)cc1)=N[C@@H](CC(=O)OC(C)(C)C)c1nnc(C)n1-2 [NCGC00250412-19],-18.5
7,CC(C)c1cc(C(=O)N2Cc3ccc(CN4CCN(C)CC4)cc3C2)c(O)cc1O + Cc1sc2c(c1C)C(c1ccc(Cl)cc1)=N[C@@H](CC(=O)OC(C)(C)C)c1nnc(C)n1-2 [NCGC00250412-19],-247
8,N=c1c2c(-c3ccccc3)c(-c3ccccc3)n(Cc3ccccc3)c2ncn1[C@H]1CC[C@H](O)CC1 + Cc1sc2c(c1C)C(c1ccc(Cl)cc1)=N[C@@H](CC(=O)OC(C)(C)C)c1nnc(C)n1-2 [NCGC00250412-19],-331
9,Nc1ncnc2c1c(-c1cccc(OCc3ccccc3)c1)cn2C1CC(CN2CCC2)C1 (centres undefined) + Cc1sc2c(c1C)C(c1ccc(Cl)cc1)=N[C@@H](CC(=O)OC(C)(C)C)c1nnc(C)n1-2 [NCGC00250412-19],-56.6
10,C[C@]12CC[C@@H]3c4ccc(O)cc4CC[C@H]3[C@@H]1CCC2=O + Cc1sc2c(c1C)C(c1ccc(Cl)cc1)=N[C@@H](CC(=O)OC(C)(C)C)c1nnc(C)n1-2 [NCGC00250412-19],-136
11,CCCCCCCCc1ccc(CCC(N)(CO)CO)cc1 + Cc1sc2c(c1C)C(c1ccc(Cl)cc1)=N[C@@H](CC(=O)OC(C)(C)C)c1nnc(C)n1-2 [NCGC00250412-19],-53.8
12,CC[C@H]1OC(=O)[C@H](C)C(=O)[C@H](C)[C@@H](O[C@@H]2O[C@H](C)C[C@H](N(C)C)[C@H]2O)[C@](C)(OC)C[C@@H](C)C(=O)[C@H](C)[C@H]2N(CCCCn3cnc(-c4cccnc4)c3)C(=O)O[C@]12C + Cc1sc2c(c1C)C(c1ccc(Cl)cc1)=N[C@@H](CC(=O)OC(C)(C)C)c1nnc(C)n1-2 [NCGC00250412-19],-231
13,N#C[C@@H]1C[C@@H]2C[C@@H]2N1C(=O)[C@@H](N)C12CC3CC(CC(O)(C3)C1)C2 + Cc1sc2c(c1C)C(c1ccc(Cl)cc1)=N[C@@H](CC(=O)OC(C)(C)C)c1nnc(C)n1-2 [NCGC00250412-19],378
14,O=C1CCc2cc(OCCCCc3nnnn3C3CCCCC3)ccc2N1 + Cc1sc2c(c1C)C(c1ccc(Cl)cc1)=N[C@@H](CC(=O)OC(C)(C)C)c1nnc(C)n1-2 [NCGC00250412-19],-180
15,CNC(=O)N1N=C(c2ccc(N)cc2)c2cc3c(cc2CC1C)OCO3 (centres undefined) + Cc1sc2c(c1C)C(c1ccc(Cl)cc1)=N[C@@H](CC(=O)OC(C)(C)C)c1nnc(C)n1-2 [NCGC00250412-19],-19.1
16,CCC1=C(C)CN(C(=O)NCCc2ccc(S(=O)(=O)NC(=O)N[C@H]3CC[C@H](C)CC3)cc2)C1=O + Cc1sc2c(c1C)C(c1ccc(Cl)cc1)=N[C@@H](CC(=O)OC(C)(C)C)c1nnc(C)n1-2 [NCGC00250412-19],-65.4
17,Cc1ccccc1-n1c(Cn2nc(-c3cccc(O)c3)c3c(N)ncnc32)nc2cccc(C)c2c1=O + Cc1sc2c(c1C)C(c1ccc(Cl)cc1)=N[C@@H](CC(=O)OC(C)(C)C)c1nnc(C)n1-2 [NCGC00250412-19],-224
18,C[C@@]12C[C@@]3(O)O[C@@H](O1)[C@]1(COC(=O)c4ccccc4)[C@H]3C[C@@]12O[C@@H]1O[C@H](CO)[C@@H](O)[C@H](O)[C@H]1O + Cc1sc2c(c1C)C(c1ccc(Cl)cc1)=N[C@@H](CC(=O)OC(C)(C)C)c1nnc(C)n1-2 [NCGC00250412-19],-20.9
19,Cc1coc2c1C(=O)C(=O)c1c-2ccc2c(C)cccc12 + Cc1sc2c(c1C)C(c1ccc(Cl)cc1)=N[C@@H](CC(=O)OC(C)(C)C)c1nnc(C)n1-2 [NCGC00250412-19],-49.1
20,CCC(C)SSc1ncc[nH]1 (centres undefined) + Cc1sc2c(c1C)C(c1ccc(Cl)cc1)=N[C@@H](CC(=O)OC(C)(C)C)c1nnc(C)n1-2 [NCGC00250412-19],-27.8
21,NS(=O)(=O)c1ccc(Nc2nc(OCC3CCCCC3)c3[nH]cnc3n2)cc1 + Cc1sc2c(c1C)C(c1ccc(Cl)cc1)=N[C@@H](CC(=O)OC(C)(C)C)c1nnc(C)n1-2 [NCGC00250412-19],-148
22,COc1ccc2cc1Oc1ccc(cc1)C[C@H]1c3cc(c(OC)cc3CCN1C)Oc1c(OC)c(OC)cc3c1[C@H](C2)N(C)CC3 + Cc1sc2c(c1C)C(c1ccc(Cl)cc1)=N[C@@H](CC(=O)OC(C)(C)C)c1nnc(C)n1-2 [NCGC00250412-19],-432
23,CC1=NN=C(c2ccc(N)cc2)c2cc3c(cc2C1)OCO3 + Cc1sc2c(c1C)C(c1ccc(Cl)cc1)=N[C@@H](CC(=O)OC(C)(C)C)c1nnc(C)n1-2 [NCGC00250412-19],-71.5
24,Nc1ncnc2c1c(-c1cnc3[nH]ccc3c1)nn2C1CCCC1 + Cc1sc2c(c1C)C(c1ccc(Cl)cc1)=N[C@@H](CC(=O)OC(C)(C)C)c1nnc(C)n1-2 [NCGC00250412-19],-352

# Reprinted at random: 2 entries already listed.
row,Compound,excess over highest single agent
13,N#C[C@@H]1C[C@@H]2C[C@@H]2N1C(=O)[C@@H](N)C12CC3CC(CC(O)(C3)C1)C2 + Cc1sc2c(c1C)C(c1ccc(Cl)cc1)=N[C@@H](CC(=O)OC(C)(C)C)c1nnc(C)n1-2 [NCGC00250412-19],378
6,CN1CCC(COc2cnc(-c3cccc(Cn4nc(-c5cccc(C#N)c5)ccc4=O)c3)nc2)CC1 + Cc1sc2c(c1C)C(c1ccc(Cl)cc1)=N[C@@H](CC(=O)OC(C)(C)C)c1nnc(C)n1-2 [NCGC00250412-19],-18.5
